B1: 72T 73W 74S (protein, listed as Rattus norvegicus)
chain: AFDGTWKVDRNENYEKFMEKMGINVVKRKLGAHDNLKLTITQEGNKFTVKESSNFRNIDVVFELGVDFAYSTWSGTELTGTWTMEGNKLVGKFKRVDNGKELIAVREISGNELIQTYTYEGVEAKRIFKKE
modifications: PEPTIDE (1)...(131) wild-type rat intestinal fatty acid binding protein
B2: 72T 74I (protein, listed as Rattus norvegicus)
chain: AFDGTWKVDRNENYEKFMEKMGINVVKRKLGAHDNLKLTITQEGNKFTVKESSNFRNIDVVFELGVDFAYSTAIGTELTGTWTMEGNKLVGKFKRVDNGKELIAVREISGNELIQTYTYEGVEAKRIFKKE
modifications: PEPTIDE (1)...(131) wild-type rat intestinal fatty acid binding protein
B3: 72A 73W 74S (protein, listed as Rattus norvegicus)
chain: AFDGTWKVDRNENYEKFMEKMGINVVKRKLGAHDNLKLTITQEGNKFTVKESSNFRNIDVVFELGVDFAYSAWSGTELTGTWTMEGNKLVGKFKRVDNGKELIAVREISGNELIQTYTYEGVEAKRIFKKE
modifications: PEPTIDE (1)...(131) wild-type rat intestinal fatty acid binding protein
B4: 72T 73V 74V (protein, listed as Rattus norvegicus)
chain: AFDGTWKVDRNENYEKFMEKMGINVVKRKLGAHDNLKLTITQEGNKFTVKESSNFRNIDVVFELGVDFAYSTVVGTELTGTWTMEGNKLVGKFKRVDNGKELIAVREISGNELIQTYTYEGVEAKRIFKKE
modifications: PEPTIDE (1)...(131) wild-type rat intestinal fatty acid binding protein
B5: 72T 73W 74E (protein, listed as Rattus norvegicus)
chain: AFDGTWKVDRNENYEKFMEKMGINVVKRKLGAHDNLKLTITQEGNKFTVKESSNFRNIDVVFELGVDFAYSTWEGTELTGTWTMEGNKLVGKFKRVDNGKELIAVREISGNELIQTYTYEGVEAKRIFKKE
modifications: PEPTIDE (1)...(131) wild-type rat intestinal fatty acid binding protein
B6: 72S 73W 74N (protein, listed as Rattus norvegicus)
chain: AFDGTWKVDRNENYEKFMEKMGINVVKRKLGAHDNLKLTITQEGNKFTVKESSNFRNIDVVFELGVDFAYSSWNGTELTGTWTMEGNKLVGKFKRVDNGKELIAVREISGNELIQTYTYEGVEAKRIFKKE
modifications: PEPTIDE (1)...(131) wild-type rat intestinal fatty acid binding protein
B7: 72T 74V (protein, listed as Rattus norvegicus)
chain: AFDGTWKVDRNENYEKFMEKMGINVVKRKLGAHDNLKLTITQEGNKFTVKESSNFRNIDVVFELGVDFAYSTAVGTELTGTWTMEGNKLVGKFKRVDNGKELIAVREISGNELIQTYTYEGVEAKRIFKKE
modifications: PEPTIDE (1)...(131) wild-type rat intestinal fatty acid binding protein
B8: 72T 73W 74L (protein, listed as Rattus norvegicus)
chain: AFDGTWKVDRNENYEKFMEKMGINVVKRKLGAHDNLKLTITQEGNKFTVKESSNFRNIDVVFELGVDFAYSTWLGTELTGTWTMEGNKLVGKFKRVDNGKELIAVREISGNELIQTYTYEGVEAKRIFKKE
modifications: PEPTIDE (1)...(131) wild-type rat intestinal fatty acid binding protein
B9: 72S 73P 74I (protein, listed as Rattus norvegicus)
chain: AFDGTWKVDRNENYEKFMEKMGINVVKRKLGAHDNLKLTITQEGNKFTVKESSNFRNIDVVFELGVDFAYSSPIGTELTGTWTMEGNKLVGKFKRVDNGKELIAVREISGNELIQTYTYEGVEAKRIFKKE
modifications: PEPTIDE (1)...(131) wild-type rat intestinal fatty acid binding protein
B10: 72S 73W 74S (protein, listed as Rattus norvegicus)
chain: AFDGTWKVDRNENYEKFMEKMGINVVKRKLGAHDNLKLTITQEGNKFTVKESSNFRNIDVVFELGVDFAYSSWSGTELTGTWTMEGNKLVGKFKRVDNGKELIAVREISGNELIQTYTYEGVEAKRIFKKE
modifications: PEPTIDE (1)...(131) wild-type rat intestinal fatty acid binding protein
B11: 72T 73V 74S (protein, listed as Rattus norvegicus)
chain: AFDGTWKVDRNENYEKFMEKMGINVVKRKLGAHDNLKLTITQEGNKFTVKESSNFRNIDVVFELGVDFAYSTVSGTELTGTWTMEGNKLVGKFKRVDNGKELIAVREISGNELIQTYTYEGVEAKRIFKKE
modifications: PEPTIDE (1)...(131) wild-type rat intestinal fatty acid binding protein
B12: 72S 73W 74E (protein, listed as Rattus norvegicus)
chain: AFDGTWKVDRNENYEKFMEKMGINVVKRKLGAHDNLKLTITQEGNKFTVKESSNFRNIDVVFELGVDFAYSSWEGTELTGTWTMEGNKLVGKFKRVDNGKELIAVREISGNELIQTYTYEGVEAKRIFKKE
modifications: PEPTIDE (1)...(131) wild-type rat intestinal fatty acid binding protein
B13: 72T 73V 74N (protein, listed as Rattus norvegicus)
chain: AFDGTWKVDRNENYEKFMEKMGINVVKRKLGAHDNLKLTITQEGNKFTVKESSNFRNIDVVFELGVDFAYSTVNGTELTGTWTMEGNKLVGKFKRVDNGKELIAVREISGNELIQTYTYEGVEAKRIFKKE
modifications: PEPTIDE (1)...(131) wild-type rat intestinal fatty acid binding protein
B14: 73W 72A 74F (protein, listed as Rattus norvegicus)
chain: AFDGTWKVDRNENYEKFMEKMGINVVKRKLGAHDNLKLTITQEGNKFTVKESSNFRNIDVVFELGVDFAYSAWFGTELTGTWTMEGNKLVGKFKRVDNGKELIAVREISGNELIQTYTYEGVEAKRIFKKE
modifications: PEPTIDE (1)...(131) wild-type rat intestinal fatty acid binding protein
B15: 72S 73M 74A (protein, listed as Rattus norvegicus)
chain: AFDGTWKVDRNENYEKFMEKMGINVVKRKLGAHDNLKLTITQEGNKFTVKESSNFRNIDVVFELGVDFAYSSMAGTELTGTWTMEGNKLVGKFKRVDNGKELIAVREISGNELIQTYTYEGVEAKRIFKKE
modifications: PEPTIDE (1)...(131) wild-type rat intestinal fatty acid binding protein
B16: 21Y 78I 102I 72A (protein, listed as Rattus norvegicus)
chain: AFDGTWKVDRNENYEKFMEKYGINVVKRKLGAHDNLKLTITQEGNKFTVKESSNFRNIDVVFELGVDFAYSAADGTEITGTWTMEGNKLVGKFKRVDNGKEIIAVREISGNELIQTYTYEGVEAKRIFKKE
modifications: PEPTIDE (1)...(131) wild-type rat intestinal fatty acid binding protein
B17: 72W 73T 74G (protein, listed as Rattus norvegicus)
chain: AFDGTWKVDRNENYEKFMEKMGINVVKRKLGAHDNLKLTITQEGNKFTVKESSNFRNIDVVFELGVDFAYSWTGGTELTGTWTMEGNKLVGKFKRVDNGKELIAVREISGNELIQTYTYEGVEAKRIFKKE
modifications: PEPTIDE (1)...(131) wild-type rat intestinal fatty acid binding protein
B18: 72T 73V 74L (protein, listed as Rattus norvegicus)
chain: AFDGTWKVDRNENYEKFMEKMGINVVKRKLGAHDNLKLTITQEGNKFTVKESSNFRNIDVVFELGVDFAYSTVLGTELTGTWTMEGNKLVGKFKRVDNGKELIAVREISGNELIQTYTYEGVEAKRIFKKE
modifications: PEPTIDE (1)...(131) wild-type rat intestinal fatty acid binding protein
B19: 21F 78V 102V 72A (protein, listed as Rattus norvegicus)
chain: AFDGTWKVDRNENYEKFMEKFGINVVKRKLGAHDNLKLTITQEGNKFTVKESSNFRNIDVVFELGVDFAYSAADGTEVTGTWTMEGNKLVGKFKRVDNGKEVIAVREISGNELIQTYTYEGVEAKRIFKKE
modifications: PEPTIDE (1)...(131) wild-type rat intestinal fatty acid binding protein
B20: 72G 73W (protein, listed as Rattus norvegicus)
chain: AFDGTWKVDRNENYEKFMEKMGINVVKRKLGAHDNLKLTITQEGNKFTVKESSNFRNIDVVFELGVDFAYSGWDGTELTGTWTMEGNKLVGKFKRVDNGKELIAVREISGNELIQTYTYEGVEAKRIFKKE
modifications: PEPTIDE (1)...(131) wild-type rat intestinal fatty acid binding protein
B21: 72T 73Q 74A (protein, listed as Rattus norvegicus)
chain: AFDGTWKVDRNENYEKFMEKMGINVVKRKLGAHDNLKLTITQEGNKFTVKESSNFRNIDVVFELGVDFAYSTQAGTELTGTWTMEGNKLVGKFKRVDNGKELIAVREISGNELIQTYTYEGVEAKRIFKKE
modifications: PEPTIDE (1)...(131) wild-type rat intestinal fatty acid binding protein
B22: 72S 73V 74V (protein, listed as Rattus norvegicus)
chain: AFDGTWKVDRNENYEKFMEKMGINVVKRKLGAHDNLKLTITQEGNKFTVKESSNFRNIDVVFELGVDFAYSSVVGTELTGTWTMEGNKLVGKFKRVDNGKELIAVREISGNELIQTYTYEGVEAKRIFKKE
modifications: PEPTIDE (1)...(131) wild-type rat intestinal fatty acid binding protein
B23: 72S 73L 74A (protein, listed as Rattus norvegicus)
chain: AFDGTWKVDRNENYEKFMEKMGINVVKRKLGAHDNLKLTITQEGNKFTVKESSNFRNIDVVFELGVDFAYSSLAGTELTGTWTMEGNKLVGKFKRVDNGKELIAVREISGNELIQTYTYEGVEAKRIFKKE
modifications: PEPTIDE (1)...(131) wild-type rat intestinal fatty acid binding protein

Experiment: Baseline fluorescence ratio Ro of probe in absence of analyte
Conditions: baseline fluorescence ratio of probe

Molecule | Ro
B1 | 0.574
B2 | 0.269
B3 | 0.353
B4 | 0.215
B5 | 0.312
B6 | 0.639
B7 | 0.249
B8 | 0.292
B9 | 0.324
B10 | 0.597
B11 | 0.241
B12 | 0.520
B13 | 0.280
B14 | 0.567
B15 | 0.358
B16 | 0.291
B17 | 0.500
B18 | 0.386
B19 | 0.288
B20 | 0.602
B21 | 0.257
B22 | 0.356
B23 | 0.347

— US20060257938A1, “Method of screening for drugs that block ligand binding to a lipid binding protein” (priority 2005, published 2006)
